{
  "source": "paper PMC11701102",
  "about": "“Structural insights into the interplay between microtubule polymerases, γ-tubulin complexes and their receptors” (Nature Communications, 2025)",
  "molecular_target": "T1, Spc97 (His-Spc97), C. albicans (C. albicans) (UniProt Q59PZ2)",
  "T1 sequence": "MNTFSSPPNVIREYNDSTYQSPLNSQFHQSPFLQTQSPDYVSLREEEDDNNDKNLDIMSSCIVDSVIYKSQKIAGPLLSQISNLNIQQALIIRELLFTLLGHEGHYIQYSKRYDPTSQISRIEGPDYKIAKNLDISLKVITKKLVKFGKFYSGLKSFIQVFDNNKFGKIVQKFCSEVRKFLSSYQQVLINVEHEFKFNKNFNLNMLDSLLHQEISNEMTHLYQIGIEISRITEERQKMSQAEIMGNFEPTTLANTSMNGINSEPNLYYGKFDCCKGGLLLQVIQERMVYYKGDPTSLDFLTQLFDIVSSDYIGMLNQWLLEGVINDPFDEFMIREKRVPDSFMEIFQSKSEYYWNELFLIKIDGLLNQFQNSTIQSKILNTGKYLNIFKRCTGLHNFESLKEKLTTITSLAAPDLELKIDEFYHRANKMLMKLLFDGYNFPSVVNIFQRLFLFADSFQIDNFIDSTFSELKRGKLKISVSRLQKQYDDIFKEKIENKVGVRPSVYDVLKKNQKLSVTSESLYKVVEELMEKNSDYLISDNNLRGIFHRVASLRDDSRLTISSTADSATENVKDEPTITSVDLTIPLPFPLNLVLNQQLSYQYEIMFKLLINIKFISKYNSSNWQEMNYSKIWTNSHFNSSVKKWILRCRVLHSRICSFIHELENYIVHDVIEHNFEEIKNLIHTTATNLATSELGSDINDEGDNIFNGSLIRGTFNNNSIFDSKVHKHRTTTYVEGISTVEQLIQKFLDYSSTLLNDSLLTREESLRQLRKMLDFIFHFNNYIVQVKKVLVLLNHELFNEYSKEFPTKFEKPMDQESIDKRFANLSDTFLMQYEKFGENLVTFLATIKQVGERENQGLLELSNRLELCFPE",
  "test": "cryo-EM structure; γ-TuSC/Spc72^1-599/FLAG-Stu2 complex purified via FLAG-Stu2; single particle analysis, γ-TuSC unit within oligomers at 3.6 Å, 14-spoked ring at 8.2 Å; both purified",
  "note": "These are yes or no findings as the source states them, for the method shown. Some entries that bind do so weakly or less than the wild type. Tags and fused reporters may be left off the sequences shown.",
  "data": [
    {"binder": "His-Spc72^1-599 (C. albicans), co-expressed in insect cells (domain or fragment, UniProt Q5AGV5 1-599, looked up, Only the CM1 motif is resolved in the cryo-EM map, as a parallel dimeric coiled coil; source: Sf21 insect cells, MultiBac co-expression with γ-TuSC components and FLAG-Stu2 or His-GFP-Mzt1) MSNLSINESNDNSNVSILSNKSGAQSSTNSSPNLIVFKQPEDLSIQLQQQQQGTQEDTPEEEEEEEEEMEQITQLEVQQENQPDTLSSSPFISRPNSPLDDIIRPQGTSSPSLTIRDSYSSQVDINISNLHKSLNEMRLSTDPVDNNNNNNKVNKNNPTNSDISNDDIITIDNLTPSRIQPKNISPWRQFRPTLRGSPESTPRSLFQNKPNLKFNNGLSPTNGSRDMVTNNIATTTKSREEELNKRIVNYKIQLKLMKNFLQELIDRNNLDPHEFHTLLRRNNNNIMNNENNPLSTSLSQTSTLEIQHQNLQIELDEALELNKQLYNKIETANKEISDKDLQISNYESRINLINYSVDELIYILINEYDKNNYSHGGSNTTSPGKETLQQSISAQLEVKLNVLKLELMTRLDQSHQYNNKPHDLFTPPYTSSEYGVSTNNVANKNDLEGYIHIIEDLIKTVDELELTCENYKANKNELQNQLVEQINESIRIKNNFQIMSNKFNQLRQSLSEKENDKNLDEFSKNNHQQQQQQQIQQLEQKLIEYEKCITILQDELDQYKQPSDTTNTTNNNNNNNNNNNRSSYSSYNNHRNSSLNELN", "values": [
      {"measurement": "binding", "value": "binds"}
    ]}
  ]
}
